Measurements taken from publication PMC8916034, “Abubidentin A, New Oleanane-type Triterpene Ester from Abutilon bidentatum and its antioxidant, cholinesterase and antimicrobial activities” (PeerJ, 2022).

experiment: ABTS radical cation decolorization assay; details: Conc. 20 µg/mL; single trials A, B, C
Description: ABTS radical cation decolorization assay was performed to measure the total antioxidant activity of the samples by obeying the previously described method ([Re et al., 1999]). In brief, ABTS^•+ radicals were generated by treating 7 mM ABTS^+ aqueous solution with 2.4 mM potassium persulfate for 12-16 h at room temperature in the dark. Prior to use, this solution was diluted with ethanol (approx. 1:89 v/v) and equilibrated to […] absorbance at 734 nm to obtain the working solution. Afterward, a 1.0 mL of working solution was reacted with 20 µL (1 mg mL^−1) samples and incubated for 30 min. After incubation, samples were scanned at 734 nm absorbance wavelength and the percentage of inhibition was determined. Ascorbic acid (AA) was applied reference standard.

SMILES	Abs (ABTS+ activity)
O=C1O[C@H]([C@@H](O)CO)C(O)=C1O [Ascorbic acid, ascorbic acid, reference compound]	0.512 and 0.515 and 0.518
CCCCCCCCCCCCCCCCCCCCCCCCCCCCCCCC(=O)O[C@H]1C[C@H](O)[C@]2(C)C3=CC=C4[C@@H]5CC(CO)(C(=O)O)CC[C@]5(C)CC[C@@]4(C)[C@]3(C)CCC2C1(C)C (stereo partly drawn) [Compound 3, 1α,3β,30-Trihydroxy-29-carboxy-olean-9(11), 12-diene-3-dotriacontanoate]	0.515 and 0.512 and 0.489
CCCCCCCCCCCCCCCCCCCCC(O)C(=O)O (stereo not shown) [Compound 1, 2-hydroxydocosanoic acid]	0.685 and 0.680 and 0.670
CC[C@@H](/C=C/[C@@H](C)C1CCC2C3CCC4C[C@@H](O)CC[C@]4(C)C3CC[C@@]21C)C(C)C (stereo partly drawn) [Compound 2, stigmasta-22-ene-3-β-ol]	0.578 and 0.572 and 0.574

Where “and” joins values, the source holds several entries; their conditions need not be identical. Equal values may be shown once.
